PubChem BioAssay AID1224830, NIAID – 2016
This is a random part of about 18,000 deposited reagents. About 2,900 of them (16%) were called active. 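Calls are made per well; low scores hint the gene aids the LPS response, high scores that it dampens it.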 Unmarked entries are inactive. Repeated entries: four replicate wells of each siRNA pool.

Purpose: 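Host factors that control LPS-induced TNF expression in human macrophages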 (primary screen)
Cells: human THP-1 monocytic leukaemia cells, TNF dual-luciferase reporter clone, PMA-differentiated to macrophage-like cells
Reagent: siRNA pool against human genes, 50 nM
Duration: LPS for 4 h, given about 3 days after siRNA transfection
Challenge: bacterial LPS (TLR4 ligand), 10 ng/ml
Measured: 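TNF firefly reporter luminescence divided by renilla, normalised to the plate median, then turned into a robust z-score for each replicate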
Direction: TNF reporter robust z-score: higher = stronger TNF reporter response to LPS
Rule for the call: 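a well is active when its z-score exceeds 2.8 or falls below -1.5; control wells carry no call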

The opening 9 entries, ahead of the listing:
target	TNF reporter robust z-score
ABCA1	-0.5
ABCA1	-0.57
ABCA1	-0.77
ABCA1	-0.08
NFKBIL1	-0.03
NFKBIL1	0.48
NFKBIL1	0.14
NFKBIL1	-0.07
CLIP2	0.16

The list itself, from the first entry:
target	TNF reporter robust z-score
ABCA1	-0.5
ABCA1	-0.57
ABCA1	-0.77
ABCA1	-0.08
NFKBIL1	-0.03
NFKBIL1	0.48
NFKBIL1	0.14
NFKBIL1	-0.07
CLIP2	0.16
CLIP2	0.91
CLIP2	-0.11
CLIP2	-0.6
SEBOX	-0.61
SEBOX	0.85
SEBOX	0.33
SEBOX	-0.11
UBE2Q1	0.79
UBE2Q1	0.03
UBE2Q1	0.13
SLC5A11	-0.32
SLC5A11	0.28
SLC5A11	-0.34
SLC5A11	-0.41
ATG16L2	0.59
ATG16L2	-0.22
ATG16L2	-0.3
ATG16L2	0.72
NUP50	-0.12
NUP50	-0.46
NUP50	-0.55
NUP50	-0.45
FCRL2	0.15
FCRL2	0.23
FCRL2	-0.37
FCRL2	1.36
MTA1	0
MTA1	0.99
MTA1	-0.1
MTA1	-0.05
SUMF1	-1.05
SUMF1	-0.54
SUMF1	-0.86
SUMF1	-0.85
SRPRB	-0.15
SRPRB	0.02
SRPRB	-1
SRPRB	-0.22
SPESP1	4.27 (active)
SPESP1	3.15 (active)
SPESP1	0.23
SPESP1	-0.17
C10orf120	0.53
C10orf120	-0.76
C10orf120	-0.72
C10orf120	-1.45
DECR1	-1.95 (active)
DECR1	-1.01
DECR1	0.33
DECR1	0.63
CTAGE15	-0.79
CTAGE15	-0.58
CTAGE15	-0.64
CTAGE15	-0.53
VPS53	0.29
VPS53	-1.2
VPS53	0.76
VPS53	0.36
GRAP	4.25 (active)
GRAP	-0.32
GRAP	0.32
GRAP	0.98
NRBP2	-0.77
NRBP2	-1.52 (active)
NRBP2	-0.97
NRBP2	-0.78
ABHD16A	-1.23
ABHD16A	-0.46
ABHD16A	-0.56
ABHD16A	-0.7
LGI1	-0.75
LGI1	-0.59
LGI1	-0.5
LGI1	-0.43
PXYLP1	-1.56 (active)
PXYLP1	-1.25
PXYLP1	-0.29
PXYLP1	-0.84
ADD2	-0.56
ADD2	-0.93
ADD2	-1.1
ADD2	0.18
EFCAB13	-0.51
EFCAB13	0.54
EFCAB13	1.1
EFCAB13	0.76
DSPP	0.15
DSPP	-0.87
DSPP	-0.3
DSPP	0.02
LRRC26	-1.21
LRRC26	-1.33
LRRC26	-0.89
LRRC26	-1.46
GET4	-0.42
GET4	-0.95
GET4	-1.03
GET4	0.21
SPIN4	-1.08
SPIN4	-1.01
SPIN4	-0.7
SPIN4	0.56
